Drawing on publication PMC8508829, this text covers binding for one substance.

Protein sequences, listed by entry. Tags and fused reporters are not part of them. Lines headed by an entry give the natural chain unless they say otherwise; changes in a name come on top. Chains listed by the source or under a name are the forms on record and can include a tag or linker.
mutant NRASD12 (P01111, form named): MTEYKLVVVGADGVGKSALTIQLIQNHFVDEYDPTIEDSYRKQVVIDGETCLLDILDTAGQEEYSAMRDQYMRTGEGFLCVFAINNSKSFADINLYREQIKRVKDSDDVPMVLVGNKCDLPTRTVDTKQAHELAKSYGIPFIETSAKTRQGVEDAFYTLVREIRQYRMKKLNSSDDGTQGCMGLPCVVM

No constants are given. Whether binding was seen depends on the method and setting. In cells and extracts the contact can be indirect. Some binding calls cover weakened binding; strength is not graded here.

This test has as its target mutant NRASD12 (UniProt P01111). Put plainly: pull-down; GST-Raf1-Ras Binding Domain protein captures RAS-GTP from lysates of Sca-1+ enriched spleen cells of untreated and 75 mg/kg ABT-737 treated (day 33) HR-MDS mice; lysis in 50 mmol/L Tris pH 7.4, 1% NP40, 15% glycerol, 200 mmol/L NaCl, 5 mmol/L MgCl2; Western blot for RAS and hBCL-2.

For human BCL-2 (from UniProt P10415 1-239), the binding entry was “binds”.
